Our source for the binding values is paper doi:10.1101/2025.01.31.635913.

In the assay the target is T1, AtMC1^C220A-GFP (catalytically inactive AtMC1 fused to C-terminal GFP), transiently expressed in N. benthamiana (Arabidopsis thaliana) (UniProt Q7XJE6).
T1 sequence: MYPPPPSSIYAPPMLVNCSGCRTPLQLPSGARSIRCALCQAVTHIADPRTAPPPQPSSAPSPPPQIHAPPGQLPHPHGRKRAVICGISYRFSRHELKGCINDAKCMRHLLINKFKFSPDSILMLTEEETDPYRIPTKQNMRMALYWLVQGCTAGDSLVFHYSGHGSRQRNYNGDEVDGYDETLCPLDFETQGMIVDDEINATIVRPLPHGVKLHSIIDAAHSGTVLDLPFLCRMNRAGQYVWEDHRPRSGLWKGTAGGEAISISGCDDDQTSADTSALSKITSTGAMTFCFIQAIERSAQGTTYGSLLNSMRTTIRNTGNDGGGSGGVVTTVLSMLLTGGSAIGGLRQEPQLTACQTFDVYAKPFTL
The experiment in a line: co-IP.

Results are given in words; binding and its absence hold for the method and conditions named. In cells and extracts the contact can be indirect. Binding calls can cover weak binding; strength is not graded here. Where a sequence is shown, tags or fusion partners need not be part of it.

“SSI4 (AT5G41750)-3xHA, transiently expressed in N. benthamiana (from UniProt Q9LSX5) (receptor)”: the binding result is “binds”.
